Data reported in patent publication US12162924B2, “Method for the design of fibrillar collagen-mimetic peptide self-assemblies” (WISCONSIN ALUMNI RESEARCH FOUNDATION, priority 2016, dated 2024).
Where “and” joins values, the source holds several entries; their conditions need not be identical. Equal entries are not always repeated. Part of at least one peptide drawing is inferred or uncertain, most often the ends. Non-standard residues stand in square brackets, D forms with d. No end group written: not given here. Hyp = O=C(O)[C@@H]1C[C@@H](O)CN1

Tests used:
Type in all cases: physicochemical
[1] = CD thermal denaturation (melting temperature of triple-helical assemblies); settings: for Tm (° C.) I = 20 mM / Tm (° C.) I = 200 mM: CD at 226 nm, 0.6 mg/mL; for Tm (° C.) I = 20 mM: 10 mM sodium phosphate pH 7.0, low ionic strength I = 20 mM; for Tm (° C.) I = 200 mM: 10 mM sodium phosphate pH 7.0 with 180 mM NaCl; for Tm (° C.): Table 2, constructs that self-assemble
Experimental: All CD data were acquired with a 202SF or 420 CD spectrophotometer from Aviv Biomedical (Lakewood, N.J.) at the UW BIF. Samples were prepared at a concentration of 0.6 mg/mL (˜160 μM) in 10 mM sodium phosphate buffer, pH 7.0, both with and without NaCl (180 mM). CD spectra were recorded at 4° C. with a 1-nm band-pass in quartz cuvettes with a 0.1-cm pathlength, using an averaging time of 4 s. For thermal denaturation experiments the CD signal was monitored at 226 nm while the sample was heated at a rate of 12° C./h in 2- or 3-° C. steps. The melting transition is indicated by a minimum on the temperature derivative of the melting curve (∂[θ]/∂T), and values (±1° C.) of melting temperature (Tm) were determined assuming constant curvature in the immediate vicinity of the transition minimum.

[2] = Analytical ultracentrifugation, sedimentation equilibrium; settings: for Average oligomerization by AUC: lower-bound assembly size, monomer + multimer model fit, 15000 rpm, 4° C. (DOKctrl: trimer + multimer model)
[3] = Negative-stained (dry) TEM imaging of peptide assemblies; settings: for Feature dimensions (nm), nanofiber diameter by TEM: dried, negative-stained, mean±SD
Experimental: All imaging was performed with a Tecnai TF-30 TEM instrument (300 kV) from FEI (Hillsboro, Oreg.) at the UW Materials Science Center (MSC; msc.engr.wisc.edu). Samples were prepared on Quantifoil R1.2/1.3 holey-carbon mesh on copper grids. Sample preparation for dry TEM was carried out at 4° C. Samples were negative-stained using freshly prepared 2.0% w/w PTA solution adjusted to pH 6 with aqueous NaOH and filtered. The peptide solution was allowed to adhere to the carbon-mesh side of the grid for 1 min, at which point excess solution was blotted with filter paper, and the grid was allowed to dry for 5 min. Negative stain was applied for 10 min by inverting the grid on a drop of PTA solution. Excess stain was removed with filter paper, and the grid was allowed to dry overnight prior to imaging. For vitreous ice cryo-TEM imaging, a solution of OKD (0.3 mg/mL) was applied to a TEM grid, glow discharged for 0.5 min at 25 mA beforehand with a Pelco easiGlow unit from Ted Pella (Redding, Calif.). The grid was allowed to equilibrate at 5° C. at 95% humidity. A drop of peptide solution was added, and the grid was then blotted and immersed in liquid ethane on a Vitrobot from FEI. The grid was transferred from liquid ethane to liquid nitrogen manually, and was stored in liquid nitrogen until imaging. Acquisition was performed at −180° C. with low dose and long exposures.

[4] = Rheology of peptide hydrogels / hydrogel formation; settings: for hydrogel formation: 4sbG series peptides
Experimental: This solution is placed in an airtight container, heated to 65° C. in a large water bath and annealed down to room temperature, overnight. The resulting hydrogel is subjected to rheological analysis (FIG. 15a).
Rheology on peptide hydrogels was performed on a TA ARES rheometer at the Soft Materials Laboratory at the University of Wisconsin—Madison, using 8-mm stainless-steel parallel-plate geometry with a 1 mm gap size. Strain sweeps (0.01-200%) maintained a fixed frequency of 2 rad/s, while a fixed strain of 1% was applied for frequency sweeps (0.1-100 rad/s).

Substance	Tm (° C.) I = 20 mM [1] [°C]	Tm (° C.) I = 200 mM [1] [°C]	Tm (° C.) [1] [°C]	Average oligomerization by AUC [2]	length over which bundled nanofibers remain aligned before separating ([3]; TEM)	Feature dimensions (nm), nanofiber diameter by TEM [3]	association regime by AUC [2]	hydrogel formation [4]	G′ (storage modulus) ([4]; hydrogel at 1% concentration) [kPa]	G″ (loss modulus) ([4]; hydrogel at 1% concentration)
PKGPKGPKGPKGP[Hyp]GP[Hyp]GD[Hyp]GD[Hyp]GD[Hyp]GD[Hyp]GP[Hyp]GP[Hyp]GP[Hyp]GP[Hyp]G-NH2 [KDO, PKGPKGPKGPKGPOGPOGDOGDOGDOGDOGPOGPOGPOGPOG]	46	38	46	>61	30-50 nm	3.8±0.7 nm	–	–	–	–
P[Hyp]GD[Hyp]GD[Hyp]GD[Hyp]GD[Hyp]GP[Hyp]GP[Hyp]GP[Hyp]GP[Hyp]GPKGPKGPKGPKGP[Hyp]G-NH2 [DOK, POGDOGDOGDOGDOGPOGPOGPOGPOGPKGPKGPKGPKGPOG]	38	31	38	>47	–	8±2 nm and 7.9 ± 2.2 nm	> 47 -mer	–	–	–
P[Hyp]GPKGPKGPKGPKGP[Hyp]GP[Hyp]GD[Hyp]GD[Hyp]GD[Hyp]GD[Hyp]GP[Hyp]GP[Hyp]GP[Hyp]G-NH2 [Peptide 4sbG-KDO2, POGPKGPKGPKGPKGPOGPOGDOGDOGDOGDOGPOGPOGPOG]	–	–	42	–	–	–	–	–	–	–
P[Hyp]GP[Hyp]GPKGPKGPKGPKGP[Hyp]GP[Hyp]GD[Hyp]GD[Hyp]GD[Hyp]GD[Hyp]GP[Hyp]GP[Hyp]G-NH2 [OKDO, POGPOGPKGPKGPKGPKGPOGPOGDOGDOGDOGDOGPOGPOG]	–	–	47	–	–	–	–	form hydrogels	0.4	(0) kPa
P[Hyp]GP[Hyp]GP[Hyp]GPKGPKGPKGP[Hyp]GPKGP[Hyp]GD[Hyp]GD[Hyp]GD[Hyp]GP[Hyp]GD[Hyp]G-NH2 [gap4, POGPOGPOGPKGPKGPKGPOGPKGPOGDOGDOGDOGPOGDOG]	–	–	50	–	–	–	–	form hydrogels	–	–
